Test results: PubChem BioAssay AID743255 (National Center for Advancing Translational Sciences (NCATS), 2014)
Out of some 390,000 compounds screened, about 910 (0.23%) were called active. Inconclusive results, whose numbers are uncertain, are shown with a selection of clear calls. The call rests on the fitted dose curve; in most records, active means well fitted inhibition curve with a large enough effect; inconclusive means small, poorly fitted or top-dose-only effect; inactive means no such curve, though single readings can be large or run the other way. A potency beside an inconclusive call is a rough fit, not a confirmed value.

Sequences of proteins named here, by UniProt entry; tags and fusion partners are left off. A change or cut given only in a name is not applied to a line headed by its entry.
UniProt O94782: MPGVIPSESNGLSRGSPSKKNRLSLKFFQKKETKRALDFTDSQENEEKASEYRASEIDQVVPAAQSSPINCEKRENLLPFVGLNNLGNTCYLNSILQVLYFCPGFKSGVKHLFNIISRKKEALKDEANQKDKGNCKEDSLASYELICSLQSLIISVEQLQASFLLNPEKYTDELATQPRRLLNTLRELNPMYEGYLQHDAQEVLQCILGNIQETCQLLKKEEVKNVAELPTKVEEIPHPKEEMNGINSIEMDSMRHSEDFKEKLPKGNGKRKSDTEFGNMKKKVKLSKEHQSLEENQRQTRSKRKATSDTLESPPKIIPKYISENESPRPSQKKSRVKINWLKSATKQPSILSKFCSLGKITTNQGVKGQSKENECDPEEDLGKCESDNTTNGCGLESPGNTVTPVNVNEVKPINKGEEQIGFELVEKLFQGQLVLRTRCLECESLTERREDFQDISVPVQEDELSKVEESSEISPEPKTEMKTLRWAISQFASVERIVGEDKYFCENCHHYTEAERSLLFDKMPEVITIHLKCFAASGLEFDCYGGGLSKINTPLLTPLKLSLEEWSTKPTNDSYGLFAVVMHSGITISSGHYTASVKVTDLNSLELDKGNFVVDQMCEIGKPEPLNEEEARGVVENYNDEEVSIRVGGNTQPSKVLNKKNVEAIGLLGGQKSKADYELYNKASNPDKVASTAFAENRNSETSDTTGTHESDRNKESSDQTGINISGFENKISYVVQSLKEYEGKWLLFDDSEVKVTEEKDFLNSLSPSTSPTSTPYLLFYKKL

These molecules were tested against Ubiquitin carboxyl-terminal hydrolase 1 (Homo sapiens) (UniProt O94782) (assay: Inhibitors of USP1/UAF1: Primary Screen). Details: recombinant USP1/UAF1, Ub-Rhodamine cleavage fluorescence; activity change, negative = inhibition: at 57.1 µM (top of the series).
Method in brief: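 In this screen, compounds sit with the deubiquitinase complex (1nM) for 15 min at room temperature before Ub-Rho is added at 150nM final. Fluorescence rise is then followed for 6 reads every 60 seconds.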
Further: nearly all actives have a fitted effect of over 60% in size.
On the % scale 0 is the no-effect control and ±100 the full control effect; potency means the concentration at half of the fitted maximal effect.

Row | Structure (SMILES) | activity change, negative = inhibition | Potency
1 | CC(C)(C)c1ccc(C(=O)Nc2ccc(NC(=O)c3ccc(Cl)c(Cl)c3)cc2)cc1 | inconclusive: -28.8% [inhibitor] | –
2 | CCOc1ccc(CNC(=O)CCCn2c(=O)c3cccn3c3cccnc32)cc1 | inactive: 3.04% | –
3 | CCOC(=O)C1CCCN(S(=O)(=O)c2ccc3c(c2)C(C)(C)C(=O)N3C)C1 (centres undefined) | – | inconclusive: 0.562 µM [inhibitor, full curve, poor fit]
4 | CCOc1ccc(C(=O)N2CCc3cc(OC)c(OC)cc3C2COc2ccc3c(C)cc(=O)oc3c2)cc1OCC (centres undefined) | – | inconclusive: 63.1 µM [inhibitor, partial curve, poor fit]
5 | O=C(CCN1C(=O)/C(=C/c2cccs2)SC1=S)NNC(=O)c1cccc(O)c1 | – | inconclusive: 35.5 µM [inhibitor, partial curve]
6 | CC(C)CC(C(=O)NC(C)(C)C)N(Cc1ccccc1Cl)C(=O)c1snc(C(N)=O)c1N (centres undefined) | – | inconclusive: 50.1 µM [inhibitor, partial curve, poor fit]
7 | CCN1C(=O)[C@H]2[C@@H](c3ccc(OC)cc3)N[C@]3(CCCN(CCC(C)C)C3=O)[C@H]2C1=O | – | inconclusive: 0.112 µM [inhibitor, full curve, poor fit]
8 | COc1ccc(-c2nn3c(-c4ccccc4)nnc3c3ccccc23)cc1 | – | inconclusive: 12.6 µM [inhibitor, partial curve, poor fit]
9 | COc1ccc(CNC(=O)CN2C(=O)COc3ccccc32)c(OC)c1 | inactive: -13.3% | –
10 | Cc1ccc2nc(NC(=O)CSc3cc(C)[nH]c(=O)n3)sc2c1 | inactive: -26.8% | –
11 | CC(=O)c1ccc(NC(=O)C2CCN(S(=O)(=O)c3c(C)noc3/C=C/c3ccc(C)cc3)CC2)cc1 | – | inconclusive: 70.8 µM [inhibitor, partial curve, poor fit]
12 | O=C1[C@H]2[C@@H](c3ccc(F)cc3)N3C(=O)N(c4cccc(Cl)c4)C(=O)[C@@]3(Cc3ccccc3)[C@H]2C(=O)N1C1CCCCC1 | – | inconclusive: 44.7 µM [inhibitor, partial curve, poor fit]
13 | CCOC(=O)C[C@H]1c2cc(F)ccc2S(=O)(=O)N1Cc1ccc(OC)cc1 | – | inconclusive: 39.8 µM [inhibitor, partial curve, poor fit]
14 | C[C@@H]1CC[C@H](Cc2ccc(-n3cccc3)cc2)N1C(=O)OC(C)(C)C | – | inconclusive: 22.4 µM [inhibitor, partial curve, poor fit]
15 | CC1(c2ccc(Cl)cc2)NC(=O)N(CC(=O)Nc2ccc(F)cc2)C1=O (centres undefined) | – | inconclusive: 7.08 µM [inhibitor, single point]
16 | CCCn1ccc2c(OCC(=O)Nc3ccccc3C(=O)OCC)cccc2c1=O | – | inconclusive: 2.82 µM [inhibitor, full curve, poor fit]
17 | Cc1ccc(NC(=O)Cn2c(=O)n(Cc3ccc(F)cc3)c(=O)c3cccnc32)cc1C | inactive: -13.3% | –
18 | CCc1ccc(-c2n[nH]nc2C2=CC(=O)C[C@H](c3ccc(F)cc3)C2)cc1 | – | inconclusive: 0.708 µM [inhibitor, full curve]
19 | CCCOc1ccc(OC(=O)c2ccc(-c3ccc(CCC)cn3)cc2)cc1 | – | inconclusive: 3.98 µM [inhibitor, full curve, poor fit]
20 | O=c1cc(O)c2ccc(O)cc2o1 | inactive: -7.31% | –
21 | COc1ccc(-c2csc(NC(C)c3nc4cc(Cl)c(Cl)cc4n3CCOCCO)n2)cc1 (centres undefined) | – | inconclusive: 15.8 µM [inhibitor, partial curve]
22 | C[C@@]12C(=O)Nc3cc(Cl)ccc3C(=O)N1[C@H]1c3cc(Br)ccc3OC[C@@H]1[C@@H]2c1ccccc1 | – | inconclusive: 44.7 µM [inhibitor, partial curve]

Row | Structure (SMILES) | activity change, negative = inhibition | Potency
23 | CCOc1ccc(C(=O)Nc2nnc(SCC(=O)NCC3CCCO3)s2)cc1 (centres undefined) | inactive: -6.96% | –
24 | Cc1c(CN(C)C)c2c(n1C)C(=O)c1ccc(Br)cc1-2 | inactive: -7.54% | –
25 | Cc1ccc(F)c(C2C3C=CCC(c4cccc(-c5ccc(N(C)C)cc5)c4)C3C(=O)N2Cc2ccccc2)c1 (centres undefined) | – | inconclusive: 0.708 µM [inhibitor, full curve, poor fit]
26 | Cc1ccc(S(=O)(=O)c2nc(-c3cccs3)oc2SCc2ccc(F)cc2)cc1 | inactive: -25.1% | –
27 | CC(=O)c1c(C(C)=O)c(C)n(NC(=O)c2cccnc2)c1C | – | inconclusive: 28.2 µM [inhibitor, single point]
28 | O=C(NCc1ccccn1)c1ccc2c(=O)n3nc(Nc4ccccc4)sc3nc2c1 | – | inconclusive: 17.8 µM [inhibitor, partial curve]
29 | Nc1nc(Nc2ccccc2)sc1C(=O)c1ccccc1 | inactive: -6.24% | –
30 | Cc1cc(=O)[nH]c(SCC(=O)c2ccccc2)c1C#N | – | inconclusive: 39.8 µM [inhibitor, partial curve]
31 | O=C(N/N=C/c1ccccn1)c1ccc(NC(=O)c2cccc([N+](=O)[O-])c2)cc1 | inactive: -5.49% | –
32 | CN(C)c1ccc(NC(=O)C2C3C=CC(C3)C2C(=O)O)cc1 (centres undefined) | – | inconclusive: 6.31 µM [inhibitor, partial curve]
33 | Cc1ccc(N2C(=O)[C@@H]3[C@H](C2=O)C2c4ccccc4C=CN2[C@@H]3C(=O)c2ccco2)c(C)c1 (some centres undefined) | – | active: 3.98 µM
34 | O=C(Nn1cnnc1)c1ccc(Br)s1 | inactive: -3.46% | –
35 | O=C(O)c1cccc(S(=O)(=O)N2CCC(Cc3ccccc3)CC2)c1 | inactive: -20% | –
36 | Clc1ccccc1N=Nc1ccccn1 | – | inconclusive: 35.5 µM [inhibitor, partial curve]
37 | CCOC(=O)C1=C(C)N(CCCCCC(=O)O)C(=O)NC1c1ccc([N+](=O)[O-])cc1 (centres undefined) | – | inconclusive: 5.62 µM [inhibitor, single point]
38 | CCc1ccc(S(=O)(=O)Nc2cc3c(cc2C)n(C)c(=O)c(=O)n3C)cc1 | – | inconclusive: 39.8 µM [inhibitor, partial curve]
39 | Cc1ccc(C)c(S(=O)(=O)NCc2ccc(C(=O)N3CCN(c4ccccc4)CC3)cc2)c1 | inactive: -6.97% | –
40 | NS(=O)(=O)c1ccc(CNS(=O)(=O)c2cc(C(=O)O)ccc2Cl)cc1 | inactive: -9.99% | –
41 | Cc1cccc(OCC(=O)Nc2ccccc2-c2ccccc2)c1 | – | inconclusive: 35.5 µM [inhibitor, partial curve]
42 | COc1nc2ccccc2nc1N1CCN(Cc2ccc3c(c2)OCO3)CC1 | – | inconclusive: 35.5 µM [inhibitor, partial curve]
43 | O=C(C1=C(c2ccccc2)C(=O)c2ccccc2C1=O)c1ccccc1 | – | inconclusive: 31.6 µM [inhibitor, partial curve]
44 | COC(=O)CCCC1=CC2=C(c3ccccc3)C(=O)C(C)(OC(=O)C3CCCC3)C(=O)C2=CN1Cc1ccco1 (centres undefined) | – | inconclusive: 12.6 µM [inhibitor, partial curve]

Row | Structure (SMILES) | activity change, negative = inhibition | Potency
45 | CC1=C(c2ccc(C)c(C)c2)S(=O)(=O)N=C1N1CCC(C(=O)NCc2ccc(N(C)C)cc2)CC1 | – | inconclusive: 5.01 µM [inhibitor, partial curve]
46 | COc1ccc(-n2nc3c(N4CCC(C(=O)NC5CCCCC5)CC4)nnc(C)c3c2C)cc1 | – | inconclusive: 39.8 µM [inhibitor, single point]
47 | CCCCC(=O)NC(=S)Nc1nnn(CCC)n1 | inactive: -15.8% | –
48 | COc1ccc(CNC(=O)c2cnn(-c3ccccc3)c2-n2cccc2)cc1OC | – | inconclusive: 0.794 µM [inhibitor, full curve]
49 | Cc1ccc(NC(=O)Cn2nc(C)c3nn(-c4ccc(Cl)cc4)c(C)c3c2=O)cc1F | – | inconclusive: 10 µM [inhibitor, partial curve, poor fit]
50 | O=C(CSc1ccc2nnc(-c3ccccn3)n2n1)NCC1CCCO1 (centres undefined) | – | inconclusive: 44.7 µM [inhibitor, partial curve, poor fit]
51 | CC(=O)c1cccc(N=Nc2c(-c3ccccc3)[nH]n(-c3ccccc3)c2=O)c1 | – | inconclusive: 28.2 µM [inhibitor, partial curve]
52 | O=C(NCc1ccccc1)c1ccc(CS(=O)(=O)c2c(Cl)cccc2Cl)o1 | inactive: 3.42% | –
53 | COC(=O)[C@]1(C)N[C@H](CN(C)S(=O)(=O)c2ccc(C(C)(C)C)cc2)[C@@H]2C(=O)N(C)C(=O)[C@@H]21 | – | inconclusive: 0.398 µM [inhibitor, full curve, poor fit]
54 | Cc1cc(N2CCN(C)CC2)nc2ccc(NC(=S)N3CCN(c4cccc(Cl)c4)CC3)cc12 | inactive: -2.46% | –
55 | CC(=O)Nc1nnc(-c2ccc3c(c2)CCCC3)o1 | inactive: -10.4% | –
56 | CCn1c2ccccc2c2nnc(SCC(=O)N3CC(C)OC(C)C3)nc21 (centres undefined) | – | inconclusive: 31.6 µM [inhibitor, single point]
57 | COc1n[nH]c(C(=O)Nc2nc3ccccc3s2)c1[N+](=O)[O-] | inactive: -4.9% | –
58 | O=C(CSc1nc(=O)[nH]c2c1CCC2)Nc1cc(C(F)(F)F)ccc1Cl | – | inconclusive: 79.4 µM [inhibitor, partial curve, poor fit]
59 | CCOC(=O)c1c(C)[nH]c(C(=O)COC(=O)c2ccco2)c1C | – | inconclusive: 5.62 µM [inhibitor, full curve, poor fit]
60 | CCOc1ccc(OCC)c(NC(=O)CN(C)S(=O)(=O)c2ccc3[nH]c(=O)oc3c2)c1 | – | inconclusive: 39.8 µM [inhibitor, single point]
61 | Cn1nc(C(F)(F)F)c2cc(C(=O)Nc3ccc(C(F)(F)F)cc3)sc21 | inactive: -10.6% | –
62 | Clc1cccc(COn2c(-c3ccc(Cl)cc3Cl)nc3ncccc32)c1 | – | inconclusive: 39.8 µM [inhibitor, partial curve]
63 | COCCn1c(C)cc(/C=C2\NC(=S)N(C)C2=O)c1C | – | inconclusive: 35.5 µM [inhibitor, partial curve]
64 | CCn1cc(C(=O)N2CCN(c3cccc(Cl)c3)CC2)c(=O)c2cc(S(=O)(=O)N3CCC(C)CC3)ccc21 | – | inconclusive: 44.7 µM [inhibitor, partial curve, poor fit]

Some values from the entries so far:
Value for `Cn1nc(C(F)(F)F)c2cc(C(=O)Nc3ccc(C(F)(F)F)cc3)sc21` under activity change, negative = inhibition: inactive: -10.6%
Value for `CCn1cc(C(=O)N2CCN(c3cccc(Cl)c3)CC2)c(=O)c2cc(S(=O)(=O)N3CCC(C)CC3)ccc21` under Potency: inconclusive: 44.7 µM [inhibitor, partial curve, poor fit]
Value for `Clc1cccc(COn2c(-c3ccc(Cl)cc3Cl)nc3ncccc32)c1` under Potency: inconclusive: 39.8 µM [inhibitor, partial curve]
Value for `CCOc1ccc(OCC)c(NC(=O)CN(C)S(=O)(=O)c2ccc3[nH]c(=O)oc3c2)c1` under Potency: inconclusive: 39.8 µM [inhibitor, single point]
Value for `Cc1cc(N2CCN(C)CC2)nc2ccc(NC(=S)N3CCN(c4cccc(Cl)c4)CC3)cc12` under activity change, negative = inhibition: inactive: -2.46%
